No constants are given. Whether binding was seen depends on the method and setting. Binding calls can cover weak binding; strength is not graded here.
Legend:
[1] = biological target: T1, AtARF19 (Arabidopsis thaliana) (UniProt Q8RYC8); assay: two-hybrid; GAL4 system; BnaREM as prey (pGAD, activation domain) against AtARF7 and AtARF19 as bait (pGBK, DNA-binding domain); medium lacking Ade, His, Trp and Leu with 100 mM 3-AT
T1 sequence: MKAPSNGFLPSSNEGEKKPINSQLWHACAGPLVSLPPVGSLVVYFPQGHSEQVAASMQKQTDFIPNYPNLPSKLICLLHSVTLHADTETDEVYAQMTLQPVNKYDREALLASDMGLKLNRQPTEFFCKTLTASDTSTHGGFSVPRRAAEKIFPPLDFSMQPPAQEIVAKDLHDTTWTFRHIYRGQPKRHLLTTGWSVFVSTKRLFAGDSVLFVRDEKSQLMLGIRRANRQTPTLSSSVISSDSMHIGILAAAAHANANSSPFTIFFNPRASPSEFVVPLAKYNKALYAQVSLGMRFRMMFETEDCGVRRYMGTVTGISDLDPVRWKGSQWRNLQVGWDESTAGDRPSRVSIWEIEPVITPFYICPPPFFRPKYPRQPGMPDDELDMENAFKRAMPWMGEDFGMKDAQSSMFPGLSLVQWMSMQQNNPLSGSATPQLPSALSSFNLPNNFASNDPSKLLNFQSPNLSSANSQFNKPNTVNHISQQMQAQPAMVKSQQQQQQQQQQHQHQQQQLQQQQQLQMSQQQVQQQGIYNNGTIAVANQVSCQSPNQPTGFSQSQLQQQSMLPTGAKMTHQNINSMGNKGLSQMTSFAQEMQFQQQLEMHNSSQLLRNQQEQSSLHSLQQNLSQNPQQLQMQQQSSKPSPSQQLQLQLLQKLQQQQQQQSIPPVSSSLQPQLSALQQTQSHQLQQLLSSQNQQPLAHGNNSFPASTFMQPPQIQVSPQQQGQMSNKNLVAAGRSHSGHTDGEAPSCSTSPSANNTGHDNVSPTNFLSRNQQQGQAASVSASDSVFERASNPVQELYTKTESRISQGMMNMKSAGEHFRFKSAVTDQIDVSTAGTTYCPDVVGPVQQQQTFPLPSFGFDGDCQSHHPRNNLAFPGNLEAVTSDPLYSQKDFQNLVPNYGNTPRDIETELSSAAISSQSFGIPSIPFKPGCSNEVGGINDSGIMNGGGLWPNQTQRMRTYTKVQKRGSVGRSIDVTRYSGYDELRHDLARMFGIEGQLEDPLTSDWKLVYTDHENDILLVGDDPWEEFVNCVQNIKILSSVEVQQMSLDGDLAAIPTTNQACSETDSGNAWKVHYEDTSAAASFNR

[2] = biological target: T2, AtARF7 (Arabidopsis thaliana) (UniProt P93022); assay: as above
T2 sequence: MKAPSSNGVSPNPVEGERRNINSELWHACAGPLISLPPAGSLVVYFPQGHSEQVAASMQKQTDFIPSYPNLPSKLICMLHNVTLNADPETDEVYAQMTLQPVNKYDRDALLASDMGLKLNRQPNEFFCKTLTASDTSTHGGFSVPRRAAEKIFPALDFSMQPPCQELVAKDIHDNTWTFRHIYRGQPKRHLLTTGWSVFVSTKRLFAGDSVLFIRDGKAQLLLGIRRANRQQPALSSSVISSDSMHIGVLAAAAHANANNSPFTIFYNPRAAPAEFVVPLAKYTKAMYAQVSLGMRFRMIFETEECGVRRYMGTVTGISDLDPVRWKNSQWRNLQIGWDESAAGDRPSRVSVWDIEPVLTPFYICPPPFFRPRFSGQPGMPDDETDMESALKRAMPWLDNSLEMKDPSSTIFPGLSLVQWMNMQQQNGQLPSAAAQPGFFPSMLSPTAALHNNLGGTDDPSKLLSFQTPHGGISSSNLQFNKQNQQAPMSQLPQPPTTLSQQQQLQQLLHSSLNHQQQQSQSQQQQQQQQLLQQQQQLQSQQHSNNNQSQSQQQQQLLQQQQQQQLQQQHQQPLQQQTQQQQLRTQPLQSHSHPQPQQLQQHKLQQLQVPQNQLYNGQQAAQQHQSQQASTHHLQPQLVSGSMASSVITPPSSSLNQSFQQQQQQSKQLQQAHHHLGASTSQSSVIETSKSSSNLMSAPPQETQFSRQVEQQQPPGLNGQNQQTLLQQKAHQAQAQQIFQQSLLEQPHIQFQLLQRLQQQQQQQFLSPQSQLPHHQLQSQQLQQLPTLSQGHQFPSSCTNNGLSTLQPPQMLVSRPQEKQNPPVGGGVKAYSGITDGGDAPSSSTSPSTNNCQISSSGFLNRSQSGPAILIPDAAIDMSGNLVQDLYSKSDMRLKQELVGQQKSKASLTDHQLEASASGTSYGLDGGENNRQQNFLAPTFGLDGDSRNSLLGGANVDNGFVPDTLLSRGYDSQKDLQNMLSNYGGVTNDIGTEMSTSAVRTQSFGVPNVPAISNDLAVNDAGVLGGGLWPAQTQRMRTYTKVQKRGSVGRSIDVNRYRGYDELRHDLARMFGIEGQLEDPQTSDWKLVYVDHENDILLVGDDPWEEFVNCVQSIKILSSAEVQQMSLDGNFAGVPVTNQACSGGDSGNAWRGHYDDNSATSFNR

Substance | binding [1] | binding [2]
BnaREM35/REM36-A1 (Brassica napus) | binds | binds
BnaREM34-A1 (Brassica napus) | binds | no binding
BnaREM34-A3 (Brassica napus) | binds | no binding
BnaREM37-A1 (Brassica napus) | binds | no binding

Source: paper PMC12907299
